Assay: Sensory test of cream soup with additive, scored against cream soup to which nothing was added
Conditions: average of scores by 15 members, points 1 to 7, control = point 3; additive per 100 ml cream soup as in Table 2 (fractions 100 mg, peptides 2 mg)
Text: (b) To 40 g of a cream soup premix comprising 44.6% (W/W) of white roux (manufactured by Hachi Foods Co., Ltd.), 3.5% (W/W) of salt, 5.1% (W/W) of granulated sugar, 11.0% (W/W) of powdered fat and oil (manufactured by UEDA OILS AND FATS MFG CO., LTD.), 7.1% (W/W) of powdered butter (manufactured by SANKYO FOODS INDUSTRY CORP.), 7.1% (W/W) of cheese powder (manufactured by Rokko Butter Co., LTD.), 8.1% (W/W) of skimmed milk powder (YOTSUBA Inc.), 5.1% (W/W) of waxy corn starch (manufactured by NIPPON STARCH CHEMICAL CO., LTD.), 2.5% (W/W) of sodium glutamate (manufactured by Kyowa Hakko Kogyo Co., Ltd.), 0.1% (W/W) of 5′-ribonucleotide (manufactured by Kyowa Hakko Kogyo Co., Ltd.), 3.5% (W/W) of chicken bouillon (manufactured by Kyowa Hakko Kogyo Co., Ltd.), 0.1% (W/W) of white pepper (manufactured by Kaneka Sun Spice Co., Ltd.), 0.2% (W/W) of Laurel powder (manufactured by Kaneka Sun Spice Co., Ltd.) and 2.0% (W/W) of powder of vegetable extract (manufactured by Kyowa Hakko Kogyo Co., Ltd.) was added hot water to make the total volume of 1000 ml. Thus, a cream soup was prepared.
(c) In a similar manner to the above (b) except that the additive shown in Table 2 was added in an amount shown in Table 2 in stead of addition of the freeze-dried powder of the solution of gelatin decomposed with collagenase or the freeze-dried powder of the solution of gelatin decomposed with pepsin, the sensory test was conducted.
In table 2, any one of the peptide consisting of an amino acid sequence represented by Gly-Pro-4Hyp, the peptide consisting of an amino acid sequence represented by Gly-Pro-Ala, the peptide consisting of an amino acid sequence represented by or Gly-Gly-Gly used was manufactured by Bachem.
Evaluation was made by giving point 3 to the “continuity of umami”, “thickness and mouthfullness” and “body taste” of the control, respectively, point 2 to the case in which somewhat weaker sensation than the control was evoked, and point 1 to the case in which weaker sensation than the case of point 2 was evoked. When stronger than the control, evaluation was made giving point 4 to somewhat stronger case, point 5 to the case stronger than the case of point 4, point 6 to the case stronger than the case of point 5, and point 7 to the case stronger than the case of point 6.
Average of scores by the 15 members was determined for the “continuity of umami”, “thickness and mouthfullness” and “body taste”.

Gly-Pro-4Hyp [Test section 4]
significantly enhanced: Body taste | Continuity of umami | Thickness and mouthfullness

Gly-Pro-Ala [Test section 5]
significantly enhanced: Body taste | Continuity of umami | Thickness and mouthfullness
